Data reported in the supplement of paper PMC10849652.
The other results are listed elsewhere or left out.

Chains of the proteins cited; added tags and fusions are not shown. Lines headed by an entry give the natural chain unless they say otherwise; changes in a name come on top.
UniProt Q9BX10: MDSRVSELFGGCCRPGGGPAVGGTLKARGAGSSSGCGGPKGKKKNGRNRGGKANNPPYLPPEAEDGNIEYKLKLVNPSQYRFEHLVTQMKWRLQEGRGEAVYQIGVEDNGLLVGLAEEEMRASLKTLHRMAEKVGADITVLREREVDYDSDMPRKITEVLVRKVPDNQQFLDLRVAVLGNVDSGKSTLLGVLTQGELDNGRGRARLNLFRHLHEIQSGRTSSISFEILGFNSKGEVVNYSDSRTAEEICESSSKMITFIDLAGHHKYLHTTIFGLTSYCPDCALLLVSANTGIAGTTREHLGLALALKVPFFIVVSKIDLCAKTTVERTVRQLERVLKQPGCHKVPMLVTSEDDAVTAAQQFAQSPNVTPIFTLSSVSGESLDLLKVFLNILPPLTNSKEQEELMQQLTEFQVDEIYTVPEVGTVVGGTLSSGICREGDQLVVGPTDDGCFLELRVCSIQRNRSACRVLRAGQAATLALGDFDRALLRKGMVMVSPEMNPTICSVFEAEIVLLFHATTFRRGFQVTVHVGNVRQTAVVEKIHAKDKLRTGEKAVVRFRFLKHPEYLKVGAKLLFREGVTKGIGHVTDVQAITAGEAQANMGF
UniProt P16403, whole entry, looked up: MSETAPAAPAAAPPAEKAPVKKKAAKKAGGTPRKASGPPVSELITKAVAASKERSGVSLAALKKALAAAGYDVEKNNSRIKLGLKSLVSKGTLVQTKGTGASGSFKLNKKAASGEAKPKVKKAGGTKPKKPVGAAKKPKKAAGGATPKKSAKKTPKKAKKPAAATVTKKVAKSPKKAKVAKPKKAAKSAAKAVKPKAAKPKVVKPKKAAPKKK
UniProt O15488: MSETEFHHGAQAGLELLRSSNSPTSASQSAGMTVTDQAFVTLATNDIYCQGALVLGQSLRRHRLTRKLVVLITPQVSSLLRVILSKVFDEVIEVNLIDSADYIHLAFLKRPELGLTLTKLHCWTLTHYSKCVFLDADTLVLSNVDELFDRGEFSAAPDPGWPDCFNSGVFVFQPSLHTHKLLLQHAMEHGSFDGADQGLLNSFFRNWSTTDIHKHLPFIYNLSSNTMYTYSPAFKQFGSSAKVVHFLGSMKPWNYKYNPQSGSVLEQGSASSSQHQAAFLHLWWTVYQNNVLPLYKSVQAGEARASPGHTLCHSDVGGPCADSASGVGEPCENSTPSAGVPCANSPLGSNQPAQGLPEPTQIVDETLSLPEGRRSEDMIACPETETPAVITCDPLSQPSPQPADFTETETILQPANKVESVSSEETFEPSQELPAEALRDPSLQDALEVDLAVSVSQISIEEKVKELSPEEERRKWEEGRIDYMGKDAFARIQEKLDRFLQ
UniProt Q99871: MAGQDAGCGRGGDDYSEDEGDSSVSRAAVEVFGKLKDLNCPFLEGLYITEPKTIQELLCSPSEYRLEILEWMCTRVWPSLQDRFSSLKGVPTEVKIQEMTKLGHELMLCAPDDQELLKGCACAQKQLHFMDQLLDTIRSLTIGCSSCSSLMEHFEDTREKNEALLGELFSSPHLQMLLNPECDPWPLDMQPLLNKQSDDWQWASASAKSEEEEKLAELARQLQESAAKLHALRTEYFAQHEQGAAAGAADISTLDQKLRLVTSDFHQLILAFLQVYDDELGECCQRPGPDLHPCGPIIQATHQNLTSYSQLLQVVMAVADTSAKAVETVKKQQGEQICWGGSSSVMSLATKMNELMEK
UniProt Q7Z4V5: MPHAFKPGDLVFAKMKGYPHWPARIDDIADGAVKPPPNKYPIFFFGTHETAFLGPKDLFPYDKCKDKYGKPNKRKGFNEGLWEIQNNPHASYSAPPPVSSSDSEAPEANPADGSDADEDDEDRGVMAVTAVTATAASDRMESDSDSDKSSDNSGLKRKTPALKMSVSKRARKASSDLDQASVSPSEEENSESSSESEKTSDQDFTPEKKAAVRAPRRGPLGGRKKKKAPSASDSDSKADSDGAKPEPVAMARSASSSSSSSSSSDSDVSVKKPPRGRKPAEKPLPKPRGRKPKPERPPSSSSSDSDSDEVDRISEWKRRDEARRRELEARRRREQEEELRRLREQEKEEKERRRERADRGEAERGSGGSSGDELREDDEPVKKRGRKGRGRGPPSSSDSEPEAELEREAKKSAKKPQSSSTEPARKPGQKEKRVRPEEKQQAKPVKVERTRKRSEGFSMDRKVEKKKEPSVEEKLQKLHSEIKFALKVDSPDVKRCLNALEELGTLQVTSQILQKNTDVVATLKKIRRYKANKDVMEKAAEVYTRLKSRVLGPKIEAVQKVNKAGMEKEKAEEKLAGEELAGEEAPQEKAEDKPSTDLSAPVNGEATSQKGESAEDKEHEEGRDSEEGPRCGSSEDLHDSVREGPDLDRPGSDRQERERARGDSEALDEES
UniProt Q92522: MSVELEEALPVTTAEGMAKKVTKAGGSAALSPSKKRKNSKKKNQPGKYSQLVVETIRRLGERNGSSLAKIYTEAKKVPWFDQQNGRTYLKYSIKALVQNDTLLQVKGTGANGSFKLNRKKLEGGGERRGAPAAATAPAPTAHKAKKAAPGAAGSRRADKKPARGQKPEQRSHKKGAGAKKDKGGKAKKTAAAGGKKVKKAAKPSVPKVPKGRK
UniProt Q9Y5Q9: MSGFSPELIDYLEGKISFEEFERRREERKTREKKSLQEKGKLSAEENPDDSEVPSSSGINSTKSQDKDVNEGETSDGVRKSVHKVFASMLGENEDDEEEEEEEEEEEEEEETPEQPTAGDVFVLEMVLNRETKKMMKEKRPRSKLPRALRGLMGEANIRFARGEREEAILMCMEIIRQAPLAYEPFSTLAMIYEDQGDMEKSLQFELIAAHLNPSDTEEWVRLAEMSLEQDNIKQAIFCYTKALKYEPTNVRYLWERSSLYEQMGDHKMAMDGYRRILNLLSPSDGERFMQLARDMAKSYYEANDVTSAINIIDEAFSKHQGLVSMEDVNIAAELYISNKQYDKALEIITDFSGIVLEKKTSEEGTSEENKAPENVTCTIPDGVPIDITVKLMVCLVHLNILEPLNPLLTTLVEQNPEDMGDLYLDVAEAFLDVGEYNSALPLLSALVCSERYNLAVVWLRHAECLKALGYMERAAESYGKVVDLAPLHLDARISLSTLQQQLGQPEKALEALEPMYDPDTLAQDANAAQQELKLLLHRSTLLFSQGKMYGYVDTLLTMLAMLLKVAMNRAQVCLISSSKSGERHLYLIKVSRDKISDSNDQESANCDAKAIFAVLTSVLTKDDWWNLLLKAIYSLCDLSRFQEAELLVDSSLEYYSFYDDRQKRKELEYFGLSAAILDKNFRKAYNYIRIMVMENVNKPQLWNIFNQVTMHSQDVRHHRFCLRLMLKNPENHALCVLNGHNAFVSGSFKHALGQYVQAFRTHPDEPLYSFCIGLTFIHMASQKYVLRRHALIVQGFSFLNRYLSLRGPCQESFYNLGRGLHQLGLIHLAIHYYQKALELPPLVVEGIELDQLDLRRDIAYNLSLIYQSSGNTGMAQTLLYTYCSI
UniProt P21266: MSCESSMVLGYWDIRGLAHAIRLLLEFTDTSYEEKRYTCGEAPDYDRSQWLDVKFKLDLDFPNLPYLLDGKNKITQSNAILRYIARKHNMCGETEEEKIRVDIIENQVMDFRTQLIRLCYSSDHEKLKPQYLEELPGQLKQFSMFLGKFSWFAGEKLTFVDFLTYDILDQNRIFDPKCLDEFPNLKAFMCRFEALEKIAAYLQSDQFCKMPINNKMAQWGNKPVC
UniProt O14929: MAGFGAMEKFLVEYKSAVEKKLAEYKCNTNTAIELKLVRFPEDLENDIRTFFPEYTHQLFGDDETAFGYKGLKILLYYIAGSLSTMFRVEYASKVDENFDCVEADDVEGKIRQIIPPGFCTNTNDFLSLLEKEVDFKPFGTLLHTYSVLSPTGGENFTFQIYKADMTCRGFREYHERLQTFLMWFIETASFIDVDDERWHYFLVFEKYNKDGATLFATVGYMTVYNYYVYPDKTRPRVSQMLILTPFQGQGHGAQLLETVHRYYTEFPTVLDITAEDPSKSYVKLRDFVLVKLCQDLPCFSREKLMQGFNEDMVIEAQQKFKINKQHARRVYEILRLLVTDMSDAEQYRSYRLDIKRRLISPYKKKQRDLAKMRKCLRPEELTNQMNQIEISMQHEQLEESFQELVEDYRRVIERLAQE
UniProt Q12849: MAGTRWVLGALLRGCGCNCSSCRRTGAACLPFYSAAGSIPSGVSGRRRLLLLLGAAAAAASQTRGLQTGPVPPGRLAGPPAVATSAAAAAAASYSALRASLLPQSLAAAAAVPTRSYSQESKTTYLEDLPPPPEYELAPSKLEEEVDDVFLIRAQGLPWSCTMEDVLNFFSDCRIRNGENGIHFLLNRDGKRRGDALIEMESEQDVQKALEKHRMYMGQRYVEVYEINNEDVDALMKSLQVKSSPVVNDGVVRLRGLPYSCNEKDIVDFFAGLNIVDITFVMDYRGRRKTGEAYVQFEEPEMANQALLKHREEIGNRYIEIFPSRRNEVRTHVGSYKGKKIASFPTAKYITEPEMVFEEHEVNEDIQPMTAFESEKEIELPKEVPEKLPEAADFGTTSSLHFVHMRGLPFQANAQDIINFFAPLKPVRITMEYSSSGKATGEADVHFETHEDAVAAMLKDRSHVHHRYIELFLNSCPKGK
UniProt P02042: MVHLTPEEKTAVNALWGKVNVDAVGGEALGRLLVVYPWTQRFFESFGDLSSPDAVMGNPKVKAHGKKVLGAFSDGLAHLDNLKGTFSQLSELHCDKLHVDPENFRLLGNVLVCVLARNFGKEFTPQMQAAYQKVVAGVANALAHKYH
UniProt Q9UBQ7: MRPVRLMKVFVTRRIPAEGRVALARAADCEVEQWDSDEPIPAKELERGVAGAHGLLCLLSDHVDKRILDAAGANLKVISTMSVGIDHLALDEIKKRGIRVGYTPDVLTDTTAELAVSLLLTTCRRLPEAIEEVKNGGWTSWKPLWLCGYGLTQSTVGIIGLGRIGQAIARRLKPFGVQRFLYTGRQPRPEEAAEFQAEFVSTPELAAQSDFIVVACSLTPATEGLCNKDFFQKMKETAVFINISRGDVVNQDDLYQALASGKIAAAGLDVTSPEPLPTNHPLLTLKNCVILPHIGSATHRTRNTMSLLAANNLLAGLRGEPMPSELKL
UniProt Q92769, whole entry, looked up: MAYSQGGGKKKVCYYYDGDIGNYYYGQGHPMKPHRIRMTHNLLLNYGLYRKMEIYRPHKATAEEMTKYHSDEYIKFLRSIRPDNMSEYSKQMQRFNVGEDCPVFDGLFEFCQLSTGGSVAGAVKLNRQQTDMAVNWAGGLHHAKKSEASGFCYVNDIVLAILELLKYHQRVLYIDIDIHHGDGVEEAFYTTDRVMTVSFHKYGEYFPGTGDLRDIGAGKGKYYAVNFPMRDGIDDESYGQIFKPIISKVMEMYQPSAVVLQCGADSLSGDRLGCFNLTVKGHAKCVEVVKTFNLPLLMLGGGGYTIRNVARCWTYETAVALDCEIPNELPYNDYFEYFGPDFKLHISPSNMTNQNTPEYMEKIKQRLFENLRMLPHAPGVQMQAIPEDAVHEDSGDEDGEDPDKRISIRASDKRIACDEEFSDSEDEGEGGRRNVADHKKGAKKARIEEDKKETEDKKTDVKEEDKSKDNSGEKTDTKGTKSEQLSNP
UniProt P35269, whole entry, looked up: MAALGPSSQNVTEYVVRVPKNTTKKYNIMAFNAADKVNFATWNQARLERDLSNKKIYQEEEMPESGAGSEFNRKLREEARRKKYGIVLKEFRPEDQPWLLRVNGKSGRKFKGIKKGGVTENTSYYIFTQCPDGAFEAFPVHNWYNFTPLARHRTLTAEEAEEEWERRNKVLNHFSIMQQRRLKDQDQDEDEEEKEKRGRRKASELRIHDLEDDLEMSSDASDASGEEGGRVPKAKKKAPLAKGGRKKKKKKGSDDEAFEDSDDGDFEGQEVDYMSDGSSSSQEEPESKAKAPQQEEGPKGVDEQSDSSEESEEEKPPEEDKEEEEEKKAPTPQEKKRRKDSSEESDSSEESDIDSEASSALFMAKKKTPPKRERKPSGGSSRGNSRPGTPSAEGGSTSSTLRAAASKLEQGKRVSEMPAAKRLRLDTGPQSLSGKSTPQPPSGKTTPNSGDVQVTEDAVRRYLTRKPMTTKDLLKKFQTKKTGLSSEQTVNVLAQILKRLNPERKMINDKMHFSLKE
UniProt P32780: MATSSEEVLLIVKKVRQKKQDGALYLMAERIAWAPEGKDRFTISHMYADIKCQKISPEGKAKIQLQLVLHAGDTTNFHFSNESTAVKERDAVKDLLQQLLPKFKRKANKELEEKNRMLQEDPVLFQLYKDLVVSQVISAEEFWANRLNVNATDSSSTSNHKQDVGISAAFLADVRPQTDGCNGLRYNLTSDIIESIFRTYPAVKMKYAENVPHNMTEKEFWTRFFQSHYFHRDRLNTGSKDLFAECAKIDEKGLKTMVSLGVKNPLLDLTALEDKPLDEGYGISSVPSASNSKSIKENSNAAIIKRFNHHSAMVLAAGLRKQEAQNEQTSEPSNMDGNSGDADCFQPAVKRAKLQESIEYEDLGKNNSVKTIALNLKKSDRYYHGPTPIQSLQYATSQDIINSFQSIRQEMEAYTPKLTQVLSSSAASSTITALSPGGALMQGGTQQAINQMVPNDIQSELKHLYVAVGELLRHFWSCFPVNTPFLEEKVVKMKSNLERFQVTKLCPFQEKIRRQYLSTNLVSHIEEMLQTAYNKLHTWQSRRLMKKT

What follows are targets tested with C1COCCN1CCN2C3=CC=CC=C3N=C2NC(=O)C4=CC(=CC=C4)[N+](=O)[O-] [IRAK-1-4 Inhibitor I] (assay: log2 fold change, soluble protein after heating vs DMSO (PISA); higher = thermal stabilisation; K562 lysate, 10 uM; active = over 0.2 and 3.5 SD of the protein, either way, in both replicates (recomputed)).
Outline: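 Thermal stability, expressed as log-two fold change relative to solvent controls, is given from duplicates. Crude K562 extract in PBS pH 7.4 with 1 mM MgCl2, at 1 mg/mL protein, was treated with 10 μM compound for 30 min and heated in aliquots for 3 min across 48°C-58°C. After pooling, adjustment to 0.5% NP-40 at 4°C and centrifugation at 21,000xg for 90 min, supernatant protein was measured by TMTpro 16plex LC-MS/MS with channel sums equalised.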

log2 fold change, inactive:
GYPA (UniProt P02724) 0.017
GTPBP2 (UniProt Q9BX10) 0.023
HDAC7 isoform 5 (UniProt Q8WUI4) -0.018
H1-2 (UniProt P16403) -0.03
GRB10 (UniProt Q13322) -0.039
GSTM4 (UniProt Q03013) -0.064
HDHD5 (UniProt Q9BXW7) 0.051
GYG2 (UniProt O15488) 0.011
HAUS7 isoform 2 (UniProt Q99871) -0.028
HDGFL2 isoform 2 (UniProt Q7Z4V5) 0
GSTM2 (UniProt P28161) 0.037
GTSF1 (UniProt Q8WW33) 0.04
H1FX (UniProt Q92522) -0.022
GUF1 (UniProt Q8N442) 0.017
GTF3C6 (UniProt Q969F1) 0.023
GTF3C3 (UniProt Q9Y5Q9) -0.001
GSTM3 (UniProt P21266) -0.033
HAT1 (UniProt O14929) 0.017
GRSF1 (UniProt Q12849) 0.054
GSS (UniProt P48637) -0.001
HBD (UniProt P02042) -0.028
HDAC4 (UniProt P56524) 0.004
GTF3A (UniProt Q92664) -0.039
GTPBP4 (UniProt Q9BZE4) -0.026
GRHPR (UniProt Q9UBQ7) 0.008
HDAC2 (UniProt Q92769) -0.017
GSTZ1 (UniProt G3V4T6) 0.016
GTF2F1 (UniProt P35269) 0.032
HBE1 (UniProt P02100) -0.006
HADHA (UniProt P40939) 0.031
GTPBP1 (UniProt O00178) -0.018
GTF2H1 (UniProt P32780) -0.019

2 neighbouring entries out of the list so far:
log2 fold change, inactive:
HADHA (UniProt P40939) 0.031
GTPBP1 (UniProt O00178) -0.018
